Results are given in words; binding and its absence hold for the method and conditions named. Some results given as binding are weak or reduced against the parent protein; the word gives no strength.
Biological target: Bacterial β-galactosidase (Calbiochem, Catalog #345788) (bacterial) [β-galactosidase: P00722]
Assay: inferred from β-galactosidase activity staining of brain slices after sequential intravenous injection of the peptide and then the enzyme

B1: K16ApoE carrier peptide (peptide)
peptide: KKKKKKKKKKKKKKKKLRVRLASHLRKLRKRLLRDA
binding: binds
